# Results: PubChem BioAssay AID212 (DTP/NCI, 2004)
# The list is a part of this screen's results and no random one: it gathers tests that were run many times, whatever their T/C, doses with no T/C, and many T/C values between a quarter and a half above the control. Other doses and runs of a compound stand elsewhere. T/C is the treated group as % of the vehicle group. Schedules are NCI's codes, taken here to give the interval after Q, in days (D) or hours (H), and the number of doses after X. Some T/C values carry the count of animals alive at the toxicity check (mostly the fifth day); without a count, all were alive then. Some entries give survivors of the animals treated and no T/C: the source files T/C as zero there, which appears to mark a toxic dose or a test without result, not a measured value. Survivors were counted at the toxicity check, usually on the fifth day, unless a day is given; later deaths do not show. Some entries hold several experiments; their values stand side by side, smallest first. Where survival is the endpoint, this PubChem deposit counts one and a half times the control or more as active, and values a quarter to a half above the control carry no call in these data; other NCI protocols may use other cut-offs.
# Tested on: BDF1 mice, colon carcinoma 38 sc, T/C %
# Assay: NCI In Vivo Anticancer Drug Screen. Data for tumor model Colon Carcinoma 38 (subcutaneous) in B6D2F1 (BDF1) mice
# In short: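 Mice with transplanted tumors are treated with compound or vehicle. Survival or tumor size is then measured in both groups. The ratio of treated to control gives the reported figure.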
# [1] = T/C endpoint: median tumor weight (est.), dose: 800.0 mg/kg/injection, schedule: Q07DX002 (ip), vehicle: Klucel (hydroxypropylcellulose) (HPC), higher T/C = larger tumour
# [2] = T/C endpoint: median tumor weight (est.), dose: 1600.0 mg/kg/injection, schedule: Q07DX002 (ip), vehicle: Klucel (hydroxypropylcellulose) (HPC), higher T/C = larger tumour
# [3] = T/C endpoint: median tumor weight (est.), dose: 25.0 mg/kg/injection, schedule: Q07DX002 (ip), vehicle: saline, higher T/C = larger tumour
structure (smiles),measurement,setting,value
CCCCNC(C)[C@]1(O)Cc2c(O)c3c(c(O)c2[C@@H](OC2CC(N)C(O)C(C)O2)C1)C(=O)c1c(OC)cccc1C3=O (some centres undefined),T/C,"T/C endpoint: median survival time, dose: 42.0 mg/kg/injection, schedule: Q07DX002 (sc), vehicle: saline, higher T/C = longer survival",147 % of control [9 of 10 alive on day 44]
same,T/C,"T/C endpoint: median survival time, dose: 68.0 mg/kg/injection, schedule: Q07DX002 (sc), vehicle: saline, higher T/C = longer survival",130 % of control [8 of 10 alive on day 44]
same,survivor count,"T/C endpoint: median survival time, dose: 110.0 mg/kg/injection, schedule: Q07DX002 (sc), vehicle: saline, higher T/C = longer survival",5 of 10 on day 44
same,T/C,"T/C endpoint: median tumor weight (est.), dose: 1.69 mg/kg/injection, schedule: Q07DX002 (ip), vehicle: saline, evaluated on day 20, higher T/C = larger tumour",132 % of control
same,survivor count,"T/C endpoint: median tumor weight (est.), dose: 27.0 mg/kg/injection, schedule: Q07DX002 (ip), vehicle: saline, higher T/C = larger tumour",1 of 10 on day 20
same,survivor count,"T/C endpoint: median tumor weight (est.), dose: 54.0 mg/kg/injection, schedule: Q07DX002 (ip), vehicle: saline, higher T/C = larger tumour",1 of 10 on day 20
N#CCCN(C(=S)Nc1cccc(C(F)(F)F)c1)C1CCCCC1,survivor count,[1],0 of 10 on day 20
same,survivor count,[2],0 of 10 on day 20
COc1cccc2c1C(=O)c1c(O)c3c(c(O)c1C2=O)C[C@@](O)(C(=O)CO)C[C@@H]3OC1CC(N)CC(C)O1 (some centres undefined),survivor count,"T/C endpoint: median tumor weight (est.), dose: 6.0 mg/kg/injection, schedule: Q07DX002 (ip), vehicle: water, higher T/C = larger tumour",6 of 10 on day 20
same,survivor count,"T/C endpoint: median tumor weight (est.), dose: 12.0 mg/kg/injection, schedule: Q07DX002 (ip), vehicle: water, higher T/C = larger tumour",0 of 10 on day 20
CCOC(=O)c1ccc(NN=NCCF)cc1,survivor count,"T/C endpoint: median tumor weight (est.), dose: 50.0 mg/kg/injection, schedule: Q07DX002 (ip), vehicle: saline with Tween-80, higher T/C = larger tumour",2 of 10 on day 20
CCN(C)N=Nc1ccc(C(N)=O)cc1,survivor count,"T/C endpoint: median tumor weight (est.), dose: 400.0 mg/kg/injection, schedule: Q07DX002 (ip), vehicle: Klucel (hydroxypropylcellulose) (HPC), higher T/C = larger tumour",0 of 10 on day 20 and 1 of 10 on day 20
C=C(C)C(=O)O[C@H]1CC2=C[C@@H](C[C@@]3(C)O[C@@H]3[C@H]3OC(=O)C(=C)[C@@H]31)OC2=O,T/C,"T/C endpoint: median tumor weight (est.), dose: 12.5 mg/kg/injection, schedule: Q07DX002 (ip), vehicle: Klucel (hydroxypropylcellulose) (HPC), evaluated on day 20, higher T/C = larger tumour",128 % of control
same,survivor count,"T/C endpoint: median tumor weight (est.), dose: 100.0 mg/kg/injection, schedule: Q07DX002 (ip), vehicle: Klucel (hydroxypropylcellulose) (HPC), higher T/C = larger tumour",4 of 10 on day 20
same,survivor count,"T/C endpoint: median tumor weight (est.), dose: 200.0 mg/kg/injection, schedule: Q07DX002 (ip), vehicle: Klucel (hydroxypropylcellulose) (HPC), higher T/C = larger tumour",0 of 10 on day 20
C[n+]1cccc(NC(=O)c2ccc(NC(=O)C34CCC(C(=O)Nc5ccc(C(=O)Nc6ccc[n+](C)c6)cc5)(CC3)CC4)cc2)c1,survivor count,"T/C endpoint: median tumor weight (est.), dose: 160.0 mg/kg/injection, schedule: Q07DX002 (ip), vehicle: saline with Tween-80, higher T/C = larger tumour",1 of 10 on day 20
same,survivor count,"T/C endpoint: median tumor weight (est.), dose: 180.0 mg/kg/injection, schedule: Q07DX002 (ip), vehicle: saline with Tween-80, higher T/C = larger tumour",5 of 10 on day 20
same,survivor count,"T/C endpoint: median tumor weight (est.), dose: 320.0 mg/kg/injection, schedule: Q07DX002 (ip), vehicle: saline with Tween-80, higher T/C = larger tumour",0 of 10 on day 20
same,survivor count,"T/C endpoint: median tumor weight (est.), dose: 360.0 mg/kg/injection, schedule: Q07DX002 (ip), vehicle: saline with Tween-80, higher T/C = larger tumour",0 of 10 on day 20
COc1cc2c(c(OC)c1OC)-c1ccc(OC)c(=O)cc1[C@@H](NC(C)=O)CC2,T/C,"T/C endpoint: median tumor weight (est.), dose: 0.39 mg/kg/injection, schedule: Q07DX002 (ip), vehicle: saline, evaluated on day 20, higher T/C = larger tumour",131 % of control
same,T/C,"T/C endpoint: median tumor weight (est.), dose: 0.5 mg/kg/injection, schedule: Q07DX002 (ip), vehicle: saline, evaluated on day 20, higher T/C = larger tumour",146 % of control
same,T/C,"T/C endpoint: median tumor weight (est.), dose: 0.78 mg/kg/injection, schedule: Q07DX002 (ip), vehicle: saline, evaluated on day 20, higher T/C = larger tumour",142 % of control
same,T/C,"T/C endpoint: median tumor weight (est.), dose: 2.0 mg/kg/injection, schedule: Q07DX002 (ip), vehicle: saline, evaluated on day 20, higher T/C = larger tumour",130 % of control
same,survivor count,"T/C endpoint: median tumor weight (est.), dose: 3.12 mg/kg/injection, schedule: Q07DX002 (ip), vehicle: saline, higher T/C = larger tumour",2 of 10 on day 20 and 6 of 10 on day 20
same,survivor count,"T/C endpoint: median tumor weight (est.), dose: 6.25 mg/kg/injection, schedule: Q07DX002 (ip), vehicle: saline, higher T/C = larger tumour",0 of 10 on day 20
same,survivor count,"T/C endpoint: median tumor weight (est.), dose: 12.0 mg/kg/injection, schedule: Q07DX002 (ip), vehicle: saline, higher T/C = larger tumour",0 of 10 on day 20
same,survivor count,"T/C endpoint: median tumor weight (est.), dose: 12.5 mg/kg/injection, schedule: Q07DX002 (ip), vehicle: saline, higher T/C = larger tumour",0 of 10 on day 20 and 1 of 10 on day 20
same,survivor count,[3],0 of 10 on day 20
same,survivor count,"T/C endpoint: median tumor weight (est.), dose: 50.0 mg/kg/injection, schedule: Q07DX002 (ip), vehicle: saline, higher T/C = larger tumour",0 of 10 on day 20
same,survivor count,"T/C endpoint: median tumor weight (est.), dose: 100.0 mg/kg/injection, schedule: Q07DX002 (ip), vehicle: saline, higher T/C = larger tumour",0 of 10 on day 20
same,survivor count,"T/C endpoint: median tumor weight (est.), dose: 200.0 mg/kg/injection, schedule: Q07DX002 (ip), vehicle: saline, higher T/C = larger tumour",0 of 10 on day 20
same,survivor count,"T/C endpoint: median tumor weight (est.), dose: 400.0 mg/kg/injection, schedule: Q07DX002 (ip), vehicle: saline, higher T/C = larger tumour",0 of 10 on day 20
CONc1ccn(C2OC(CO)C(O)C2O)c(=O)n1 (centres undefined),T/C,"T/C endpoint: median tumor weight (est.), dose: 100.0 mg/kg/injection, schedule: Q07DX002 (ip), vehicle: saline, evaluated on day 20, higher T/C = larger tumour",128 % of control
same,T/C,"T/C endpoint: median tumor weight (est.), dose: 200.0 mg/kg/injection, schedule: Q07DX002 (ip), vehicle: saline, evaluated on day 20, higher T/C = larger tumour",126 % of control
same,T/C,"T/C endpoint: median tumor weight (est.), dose: 400.0 mg/kg/injection, schedule: Q07DX002 (ip), vehicle: saline, evaluated on day 20, higher T/C = larger tumour",135 % of control [8 of 10 alive on day 20]
same,survivor count,"T/C endpoint: median tumor weight (est.), dose: 800.0 mg/kg/injection, schedule: Q07DX002 (ip), vehicle: saline, higher T/C = larger tumour",1 of 10 on day 20 and 4 of 10 on day 20
CCCNC1=C(C)C(=O)C2=C(C1=O)[C@H](COC(N)=O)[C@]1(OC)[C@@H]3N[C@@H]3CN21,survivor count,"T/C endpoint: median tumor weight (est.), dose: 24.0 mg/kg/injection, schedule: Q07DX002 (ip), vehicle: suspension in saline, higher T/C = larger tumour",2 of 10 on day 20
same,survivor count,[3],1 of 10 on day 20
same,survivor count,"T/C endpoint: median tumor weight (est.), dose: 48.0 mg/kg/injection, schedule: Q07DX002 (ip), vehicle: suspension in saline, higher T/C = larger tumour",1 of 10 on day 20
CC(=O)Oc1[nH]c(=O)c2cccc3c2c1CCC3,T/C,"T/C endpoint: median tumor weight (est.), dose: 100.0 mg/kg/injection, schedule: Q07DX002 (ip), vehicle: saline with Tween-80, evaluated on day 20, higher T/C = larger tumour",137 % of control
same,survivor count,"T/C endpoint: median tumor weight (est.), dose: 3200.0 mg/kg/injection, schedule: Q07DX002 (ip), vehicle: saline with Tween-80, higher T/C = larger tumour",6 of 10 on day 20
CCCCCc1cc(/C=C2/N=C(c3ccc[nH]3)C=C2OC)[nH]c1C,T/C,"T/C endpoint: median tumor weight (est.), dose: 1.0 mg/kg/injection, schedule: Q07DX002 (ip), vehicle: saline with Tween-80, evaluated on day 20, higher T/C = larger tumour",126 % of control
NC(=O)/C=C/c1c[nH]c2nccnc12,T/C,"T/C endpoint: median tumor weight (est.), dose: 50.0 mg/kg/injection, schedule: Q07DX002 (ip), vehicle: water, evaluated on day 20, higher T/C = larger tumour",141 % of control
same,survivor count,"T/C endpoint: median tumor weight (est.), dose: 200.0 mg/kg/injection, schedule: Q07DX002 (ip), vehicle: water, higher T/C = larger tumour",1 of 10 on day 20
CCC1CC2CN(CCc3c([nH]c4ccccc34)C(C(=O)OC)(c3cc4c(cc3OC)N(C)C3C(O)(C(=O)OC)C(OC(C)=O)C5(CC)C=CCN6CCC43C65)C2)C1 (centres undefined),T/C,"T/C endpoint: median tumor weight (est.), dose: 2.0 mg/kg/injection, schedule: Q07DX002 (ip), vehicle: suspension in saline, evaluated on day 20, higher T/C = larger tumour",135 % of control
same,T/C,"T/C endpoint: median tumor weight (est.), dose: 4.0 mg/kg/injection, schedule: Q07DX002 (ip), vehicle: suspension in saline, evaluated on day 20, higher T/C = larger tumour",144 % of control
same,survivor count,"T/C endpoint: median tumor weight (est.), dose: 8.0 mg/kg/injection, schedule: Q07DX002 (ip), vehicle: suspension in saline, higher T/C = larger tumour",6 of 10 on day 20
S=C=NCCc1ccccc1,survivor count,"T/C endpoint: median tumor weight (est.), dose: 200.0 mg/kg/injection, schedule: Q07DX002 (ip), vehicle: saline with Tween-80, higher T/C = larger tumour",0 of 10 on day 20
CCNC(=O)[B-][N+](C)(C)C,T/C,"T/C endpoint: median tumor weight (est.), dose: 50.0 mg/kg/injection, schedule: Q07DX002 (ip), vehicle: Klucel (hydroxypropylcellulose) (HPC), evaluated on day 20, higher T/C = larger tumour",141 % of control
same,survivor count,[1],5 of 10 on day 20
same,survivor count,[2],0 of 10 on day 20
CCC1=C[C@H]2CN(CCc3c([nH]c4ccccc34)[C@@](C(=O)OC)(c3cc4c(cc3OC)N(C)[C@H]3[C@@](O)(C(=O)NC)[C@H](OC(C)=O)[C@]5(CC)C=CCN6CC[C@]43[C@@H]65)C2)C1,T/C,"T/C endpoint: median tumor weight (est.), dose: 0.25 mg/kg/injection, schedule: Q07DX002 (ip), vehicle: saline, evaluated on day 20, higher T/C = larger tumour",138 % of control
COc1cc([C@@H]2c3cc4c(cc3[C@@H](OC3OC5CO[C@@H](c6cccs6)OC5C(O)C3O)[C@H]3COC(=O)[C@H]23)OCO4)cc(OC)c1O (some centres undefined),T/C,"T/C endpoint: median tumor weight (est.), dose: 32.0 mg/kg/injection, schedule: Q07DX002 (ip), vehicle: suspension in saline, evaluated on day 20, higher T/C = larger tumour",127 % of control
same,survivor count,"T/C endpoint: median tumor weight (est.), dose: 32.0 mg/kg/injection, schedule: Q07DX002 (ip), vehicle: suspension in saline, higher T/C = larger tumour",4 of 10 on day 20
